Data taken from PubChem BioAssay AID493014 (National Center for Advancing Translational Sciences (NCATS), 2011).
The whole screen tested about 340,000 compounds, of which about 170 (0.05%) were called active. This list was built around the results that the source calls inconclusive (neither active nor inactive); the mix of calls is not that of the screen. The call rests on the fitted dose curve; in most records, active means well fitted inhibition curve with a large enough effect in the signal ratio, with a control signal flat (not every such curve was filed as active); inconclusive means small, poorly fitted or top-dose-only effect, or effect the other way, or a change in a side signal; inactive means flat fitted curve, though single readings scatter; the % refers to the signal ratio. Where the call is inconclusive, the potency comes from a doubtful curve fit.

Experiment: qHTS Assay to Find Inhibitors of Chronic Active B-Cell Receptor Signaling;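 on activity change, negative = inhibition: plate controls were basal doxycycline-induced cells for no effect and cells given 10 µM MG132 for full effect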
Conditions: ABC-DLBCL IkBa-CBG/CBR reporter, luminescence ratio (green luciferase fused to IkBa over red control in TMD8 lymphoma cells), 4 h; activity change, negative = inhibition: at 46.1 µM (top of the series) unless noted
Procedure, shortened: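 Doxycycline induced both beetle luciferases in TMD8 lymphoma cells; IKK-driven degradation limits the IkappaBalpha-fused green signal, while red luminescence normalises for cell number and nonspecific effects. Compounds tested up to 46 uM, 4 hrs.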
Potency means the concentration at half of the fitted maximal effect.

| SMILES | Potency | activity change, negative = inhibition |
| --- | --- | --- |
| CC(=O)Nc1ccc(Nc2nc(-c3sc(NC(C)=O)nc3C)cs2)cc1 | inconclusive: 22.4 µM [falling, partial curve] |  |
| O=C(Nc1ccc(O)cc1C(=O)O)c1ccc2c(c1)C(=O)N(Cc1ccco1)C2=O | inconclusive: 29.1 µM [falling, single point] |  |
| O=[N+]([O-])c1cccc(OCC(O)CN2CCN(S(=O)(=O)c3cc(Cl)ccc3Cl)CC2)c1 (stereo not given) |  | inconclusive: 2.6% |
| COc1cc(/C=C/c2nc3ccccc3c(=O)[nH]2)ccc1OC(F)F |  | inactive: 2.93% |
| CCn1c(C)c(/C=N/Nc2nc3ccccc3s2)c2ccccc21 |  | inconclusive: 1.87% |
| CC1(C)CC(=O)C=C(Nc2ccccc2O)C1 |  | inconclusive: -26.3% |
| Cc1csc(NC(=O)C2CCCCN2S(=O)(=O)c2ccccc2)n1 (stereo not given) |  | inconclusive: 4.61% |
| CN(Cc1ccccc1)C(=O)COC(=O)c1ccc[nH]c1=O |  | inactive: -0.605% |
| COC(=O)c1ccc(COc2ncnc3ccccc23)o1 |  | inactive: -12.4% |
| C=CCc1ccccc1OCC(O)CNC1CCCC1 (stereo not given) | inconclusive: 17.8 µM [falling, partial curve, poor fit] |  |
| O=C(c1ccco1)N1CCN=C1SCc1cccc(F)c1 |  | inconclusive: 10.2% |
| Fc1ccc(SCCc2ccncc2)cc1 |  | inactive |
| C[C@H]1CN=C(N(C)C)N1CCCCc1ccccc1 |  | inactive: 0.0242% |
| Cc1ccc(-c2nnc(Cc3ccc(Cl)cc3)o2)cc1 |  | inconclusive: -18.7% |
| COC(=O)c1ccc(NC(=S)NCCc2cccc(C)c2)cc1 | inconclusive: 1.84 µM [falling, full curve] |  |
| COc1cc(OC)c(C2=NOC(C(=O)Nc3c(C)nn(CC(=O)N4CCCC4)c3C)C2)cc1Cl (stereo not given) |  | inconclusive: 1.56% |
| COc1ccc(Nc2nnc(Cc3ccncc3)c3ccccc23)c(OC)c1 | inconclusive: 3.55 µM [falling, partial curve] |  |
| Cc1cccc2c(C(=O)N3CCN(c4ccccn4)CC3)cc(-c3cccc(Br)c3)nc12 |  | inactive: -0.528% |
| Clc1ccccc1-c1nnc2sc(-c3cccs3)nn12 |  | inconclusive: -19.7% |
| CCn1nc(NC(=O)c2cccnc2)c2cc3cccc(C)c3nc21 |  | inactive: 2.26% |
| O=C(N/N=C/c1cccc2ccccc12)c1cccc(F)c1 | inconclusive: 25.1 µM [falling, partial curve] |  |
| CCCCNC(=S)Nc1ccc(Cl)cc1 |  | inactive: 3.44% |
| O=S(=O)(c1ccccc1)c1nc(-c2ccco2)oc1N1CCOCC1 |  | inactive: -5.04% |
| CCOCCc1nnc(NC(=O)CCc2ccccc2)s1 |  | inactive: -3.31% |
| Cc1cc(C)c(C#N)c(SCCN2CCOCC2)n1 |  | inactive: 1.79% |
| CCC(=O)N1c2ccccc2NC2=C(C(=O)CC(C)(C)C2)C1c1ccc(O)c(OC)c1 (stereo not given) |  | inactive: 3.38% |
| COC(=O)c1c(-c2cccc3ccccc23)csc1NC(=O)Cc1ccc(OC)c(OC)c1 |  | inconclusive: 0.783% |

Some of the entries so far, tab-delimited.
SMILES	Potency	activity change, negative = inhibition
COc1cc(OC)c(C2=NOC(C(=O)Nc3c(C)nn(CC(=O)N4CCCC4)c3C)C2)cc1Cl (stereo not given)		inconclusive: 1.56%
COc1ccc(Nc2nnc(Cc3ccncc3)c3ccccc23)c(OC)c1	inconclusive: 3.55 µM [falling, partial curve]	

Single records, as listed above.
O=S(=O)(c1ccccc1)c1nc(-c2ccco2)oc1N1CCOCC1 is entered as activity change, negative = inhibition: inactive: -5.04%
Clc1ccccc1-c1nnc2sc(-c3cccs3)nn12 is entered as activity change, negative = inhibition: inconclusive: -19.7%

Going on with the list.

| SMILES | Potency | activity change, negative = inhibition |
| --- | --- | --- |
| c1ccc(CN(Cc2cccs2)C(c2cccs2)c2nnnn2C2CCCC2)cc1 (stereo not given) | inconclusive: 16.4 µM [rising, single point] |  |
| N#C/C(=C\c1ccc(OCc2ccc(F)cc2)cc1)C(=O)Nc1cccc(C(=O)O)c1 |  | inconclusive: 5.6% |
| COc1cc2nc(N3CCN(c4cc(C)ccc4C)CC3)nc(N)c2cc1OC |  | inconclusive: 12.6% |
| COc1ccc(C(CNC(=O)COc2ccccc2OC)N(C)C)cc1OC (stereo not given) |  | inconclusive: -0.153% |
| O=C(CCSc1nnc(-c2ccncc2)o1)Nc1ccc(Cl)cc1 |  | inconclusive: 4.08% |
| CC(=O)C1=C(C)Nc2ncnn2C1c1ccc(C)cc1 (stereo not given) |  | inconclusive: 1.88% |
| Cc1ccccc1NC(=O)NNC(=O)c1ccc2ccccc2c1O |  | inconclusive: -1.39% |
| CCOC(=O)C1CCCN(c2ncnc3c2oc2ccccc23)C1 (stereo not given) |  | inconclusive: -10.5% |
| COc1ccc(OC)c(S(=O)(=O)Nc2cc3c4c(c2)CCC(=O)N4CCC3)c1 |  | inconclusive: -0.506% |
| COc1ccc(CCCC(=O)N/N=C/c2cccc(OC)c2O)cc1C | inconclusive: 18.4 µM [falling, single point] |  |
| O=C(/C=C/c1cccc([N+](=O)[O-])c1)NCCN1C(=O)S/C(=C\c2cccnc2)C1=O | inconclusive: 12.6 µM [falling, single point] |  |
| O=C(Nc1nnc(-c2ccco2)o1)c1ccc(Cl)cc1 | inconclusive: 35.5 µM [rising, single point] |  |
| O=C(Oc1ccc(N(Cc2cccs2)C2=NS(=O)(=O)c3ccccc32)cc1)c1ccc(Cl)cc1 |  | inactive: 10.4% |
| O=C(CSc1nc2ccccc2[nH]1)N1c2ccccc2Sc2ccccc21 |  | inactive: 8.86% |
| O=[N+]([O-])c1cccc(S(=O)(=O)N2CCCC2)c1 |  | inconclusive: 3.23% |
| Cc1ccc(SCC(=O)NC2CC3CCC(C2)N3C)cc1 (stereo not given) | inconclusive: 0.0891 µM [falling, full curve, poor fit] |  |
| Cc1ccc(NCC(=O)N/N=C\c2ccc[nH]2)cc1 |  | inconclusive: 13.6% |
| Cc1nn(Cc2ccc(Cl)cc2)c(C)c1NC(=O)CCCn1nc([N+](=O)[O-])c(Cl)c1C |  | inconclusive: -4.33% |
| COc1cc(/C=C2/SC(=O)N(Cc3ccccc3Cl)C2=O)ccc1OCc1ccncc1 |  | inactive: -5.21% |
| CCn1cc(C(=O)NCc2ccco2)c(=O)c2cc(S(=O)(=O)N3CCCCCC3)ccc21 |  | inconclusive: 2.98% |
| O=C(O)c1cc(N/N=C/c2ccc3c(c2)OCCO3)ccc1Cl |  | inconclusive: 221% |
| O=C1SCC(c2ccccc2)=NN1Cc1ccccc1 |  | inconclusive: 4.97% |
| COc1ccc(OCCC(=O)OCC(=O)NC(=O)NC(C)C)cc1 | inconclusive: 29.1 µM [rising, partial curve, poor fit] |  |
| CCCSc1nc(-n2ncc(C#N)c2N)c2c3c(sc2n1)CCC(C)C3 (stereo not given) | inconclusive: 25.9 µM [rising, single point] |  |
| CC(C)(C)NC(=O)NC(=O)CSc1ncc(C(F)(F)F)cc1Cl |  | inconclusive: 8.37% |
| COCCNc1nc(-c2cc(-c3ccccc3)on2)cc(C(C)C)n1 | inconclusive: 22.4 µM [falling, partial curve, poor fit] |  |
| CCN(CCCNC(=O)C1CCN(S(=O)(=O)N2CCC3(CC2)OCCO3)CC1)c1ccccc1 |  | inactive: 0.612% |

| SMILES | Potency | activity change, negative = inhibition |
| --- | --- | --- |
| CC(C)C[C@@H]1CN=C(N)N1C[C@@H]1CCCN1C[C@@H](C(C)C)N1C[C@@H](Cc2ccccc2)N(CCCC2CCCC2)C1=N |  | inconclusive: 4.96% |
| O=C(O)CCC(=O)c1ccc2c(c1)OCCCO2 |  | inconclusive: -9.4% |
| NC(=O)c1cc(S(=O)(=O)N2CCN(c3ccc([N+](=O)[O-])cc3)CC2)cs1 |  | inactive: 0.118% |
| CC(C)(C)CNC(=O)c1cccc2c1C(=O)c1ccc(-c3cc4ccccc4o3)cc1S2(=O)=O |  | inactive: 0.0942% |
| O=C(CCC1CCCCC1)NNC(=O)NC12CC3CC(CC(C3)C1)C2 |  | inconclusive: 0.406% |
| C=CC[C@@H](Cc1ccc(F)cc1)C(=O)OC[C@H]1CCCN1C(=O)[C@H](CC=C)CC(=O)N(CCO)Cc1ccccc1 |  | inconclusive: -1.54% |
| Cc1cccc(N=C/C(C(=O)C(F)(F)F)=C(\O)c2ccco2)c1 |  | inconclusive: -14.8% |
| O=C(NCCCc1ccccc1)Nc1ccccc1 | inconclusive: 20.6 µM [falling, partial curve, poor fit] |  |
| Cc1ccc(C(C)C)c(OCc2ccc(C(=O)N/N=C/c3ccc(O)c(O)c3)cc2)c1 |  | inactive: -1.05% |
| Fc1ccc(CNC(=S)Nc2ccc(OC(F)F)cc2)cc1 |  | inactive: 3.87% |
| CC(=O)Oc1ccc(C(=O)Nc2ccc3c(c2)OCCO3)cc1 | inconclusive: 20 µM [falling, partial curve] |  |
| C[C@H](CO)N1C[C@H](C)[C@@H](CN(C)CC2CCCCC2)Oc2c(NC(=O)C3CC3)cccc2C1=O |  | inconclusive: -4.66% |
| COc1cccc(-c2nn(C)c3sc(C(=O)NCc4ccc(C)o4)cc23)c1 | inconclusive: 2.91 µM [rising, full curve, poor fit] |  |
| Cc1cc2nc(=O)c(/C=C3\C=Nc4ccccc43)c(N)n2o1 |  | inconclusive: 1.15% |
| CC(C)c1c(O)c2c(n(-c3ccccc3)c1=O)CCCC2 |  | inconclusive: -0.444% |
| Cc1sc(NC(=O)c2ccco2)c(CN2CCCCC2)c1C |  | inactive: -12.5% |
| COc1ccc(Oc2c(Cl)cnn(-c3ccc(C)cc3)c2=O)cc1 | inconclusive: 29.1 µM [falling, single point] |  |
| CCOC(=O)c1[nH]c(C)c(C(=O)OCC(=O)N(CC)C2CCS(=O)(=O)C2)c1C (stereo not given) | inconclusive: 29.1 µM [rising, single point] |  |
| COCC(=O)N(Cc1cc2ccc(C)cc2[nH]c1=O)c1ccc(OC)cc1 | inconclusive: 0.13 µM [rising, full curve, poor fit] |  |
| O=C(NCc1ccc(Cl)cc1)c1ccc(CNS(=O)(=O)c2ccc(F)cc2)cc1 |  | inconclusive: 2.21% |
| CC(C)N1CCc2c(sc(NC(=O)c3ccc(S(=O)(=O)N(C)C4CCCCC4)cc3)c2C(N)=O)C1 |  | inconclusive: -24.7% |
| COCCNC(=O)c1onc(CSc2ccc(F)c(F)c2)c1C(=O)O | inconclusive: 28.2 µM [falling, single point] |  |
| Cc1ccccc1C(=O)N1CCC(C(=O)OCc2ccccn2)CC1 |  | inactive: -5.85% |
| CCOC(=O)N/N=C/c1ccc(Oc2ccccc2)cc1 | inconclusive: 17.8 µM [falling, single point] |  |
| O=C(NC1CCCCC1)C(c1cccnc1)N(C(=O)CCl)c1ccc(F)cc1 (stereo not given) | inconclusive: 20.6 µM [falling, partial curve] |  |
| CCOC(=O)c1oc2nc3c(cc2c1N)CCCC3 |  | inconclusive: -10.5% |
